No constants are given. Whether binding was seen depends on the method and setting. In cells and extracts the contact can be indirect. Here binding means that the protein was enriched with, or labelled near, the bait; the list need not be complete.
Target: NLRP3 (NOD-, LRR-, and pyrin domain-containing protein 3), endogenous, mouse peritoneal macrophages (mouse (endogenous in peritoneal macrophages)) (UniProt Q8R4B8)
Assay: affinity purification with mass spectrometry; anti-NLRP3 antibody incubated with total cell lysates of LPS-stimulated mouse primary peritoneal macrophages; complex separated by SDS-PAGE, LC-MS/MS

By UniProt entry, the sequences of proteins in these tests, tags left out.
UniProt Q8R4B8: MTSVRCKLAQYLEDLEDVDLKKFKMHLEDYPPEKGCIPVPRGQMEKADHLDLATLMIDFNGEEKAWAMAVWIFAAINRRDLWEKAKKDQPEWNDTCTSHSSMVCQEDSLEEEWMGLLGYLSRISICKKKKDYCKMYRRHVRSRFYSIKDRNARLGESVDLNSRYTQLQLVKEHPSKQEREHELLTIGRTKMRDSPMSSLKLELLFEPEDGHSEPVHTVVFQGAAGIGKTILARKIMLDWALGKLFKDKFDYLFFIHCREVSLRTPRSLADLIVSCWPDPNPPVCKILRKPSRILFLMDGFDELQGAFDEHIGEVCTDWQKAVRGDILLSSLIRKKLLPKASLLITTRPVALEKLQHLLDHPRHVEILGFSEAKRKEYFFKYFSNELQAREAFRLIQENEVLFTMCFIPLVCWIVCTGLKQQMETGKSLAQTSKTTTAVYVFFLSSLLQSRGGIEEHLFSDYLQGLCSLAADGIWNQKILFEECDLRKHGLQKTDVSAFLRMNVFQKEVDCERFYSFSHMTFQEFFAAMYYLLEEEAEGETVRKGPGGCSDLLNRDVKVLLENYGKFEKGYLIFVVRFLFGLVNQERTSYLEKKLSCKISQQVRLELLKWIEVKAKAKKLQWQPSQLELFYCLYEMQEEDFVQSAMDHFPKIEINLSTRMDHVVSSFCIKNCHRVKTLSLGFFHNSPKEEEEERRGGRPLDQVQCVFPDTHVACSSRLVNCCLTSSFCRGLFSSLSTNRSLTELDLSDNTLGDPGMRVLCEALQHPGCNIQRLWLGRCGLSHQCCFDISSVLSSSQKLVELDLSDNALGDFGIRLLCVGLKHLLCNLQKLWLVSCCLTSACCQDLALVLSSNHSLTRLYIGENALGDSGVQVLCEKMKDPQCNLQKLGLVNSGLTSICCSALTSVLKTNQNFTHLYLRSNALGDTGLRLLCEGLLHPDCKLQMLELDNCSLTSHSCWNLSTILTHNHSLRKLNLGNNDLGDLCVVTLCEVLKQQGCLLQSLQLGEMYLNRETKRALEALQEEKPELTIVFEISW

B1: HERC6 (HECT domain- and RCC1-like domain-containing protein 6), endogenous, mouse peritoneal macrophages (enzyme, UniProt F2Z461 1-1003)
chain: MYFSWAAGSRKPRRLKAGTSGIELLQAASGEHHSLLLFSNHRVYSCGDNSWGQLGQRRDQSTERPEPIQALNDLHVDLVSCGKEHSVAVCHKGKVFAWGAGSEGQLGIGEFKEISFMPTKIKALAGIKIIQVSCGHYHSLALSEDGHVFSWGRNSEGQLGLGKNSRSQAIPQKVKSLEGIPLAQVAAGGTHSFALSLTGTSFGWGSNRSGQLALSGNKVKEQIYKPHSIGALKNLSVIYISCGYEHTAVLTEEGQVFTFGGNSSGQLQPSPRSGQRGPQLIEGIGGRVSQIECASYHTIAYVYTTGQVVSLGRGPSHTSNPTHQEAPAENSDITCLLAAEDLVDIEVKDIFAGAHANFVTTRRVSHTRSTGVSMKILPEIIRINQSLVKKWRAANKRKDREGAKREISLIFSSSACLTASFLKKRDAGENNLIDVDLKLARDVFKKLTTEKWISSLITTCLEEYLLRDLPYSSPHQEALLVFLLLPECSIMQDPKNWKTLAFEFAKAIHKMGPQSLAFLRTCWASLEVSSLNILVQMLKKAIISQIQYGVATEQYITNIKVLLEVIKEVHKANCQLPESAFIINELSGIFNFDAEAGRMFIRHNDLDCTESSDMVVFSDFLFVFDLPSKIKLMKCDSFVKLMSEVMAFPEKMSSPPYLILKVRRSHLVEDTLRQLRQVEDFDLRKQLSVGFINEIRPEAGGVSSEFFHCIFEEMTDPKYEMFIYPEKGSSMWFPVNPKFEKSSYFLFGILCGLSLHNLKVINLPFPLALYKKLLNQKPSLEDLKELSLPLGRNLQEVLNCEAGDIEELHMYFSIYWDQKDVDLIPDGISVPVNETNKRDYVSKYVDYIFNISIKTIYEEFHRGFYKVCNWDIIRQFQPEELMTAIIGNATCDWKQFENNSKYKDGYDKSHPTILLFWKAFHDLTLDEKKKFLLFLTGCDRLHVKGLQNEGIVFRCSETFSEEDNPRSLTCHRMLDLPKYSSMRRMKEALQVAINNSTGFVSQE
- binding: binds
